This passage reports log2 fold change results from the supplement of paper PMC12819154, “High-throughput peptide-centric local stability assay extends protein–ligand identification to membrane proteins, tissues and bacteria” (Nature Structural & Molecular Biology, 2025).

By UniProt entry, the sequences of proteins in these tests, tags left out.
UniProt P84090, whole entry, looked up: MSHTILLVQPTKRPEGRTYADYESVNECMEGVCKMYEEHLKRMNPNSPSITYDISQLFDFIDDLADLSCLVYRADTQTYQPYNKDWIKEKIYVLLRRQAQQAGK
UniProt P62304, whole entry: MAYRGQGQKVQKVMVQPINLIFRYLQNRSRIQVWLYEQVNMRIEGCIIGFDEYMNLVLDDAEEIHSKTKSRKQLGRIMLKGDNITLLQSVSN
UniProt P60660, whole entry: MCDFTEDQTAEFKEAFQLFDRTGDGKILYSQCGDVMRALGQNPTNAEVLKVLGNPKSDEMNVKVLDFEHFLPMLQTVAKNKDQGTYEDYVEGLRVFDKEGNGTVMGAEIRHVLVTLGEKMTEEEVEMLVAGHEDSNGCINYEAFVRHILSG
UniProt P61244, whole entry: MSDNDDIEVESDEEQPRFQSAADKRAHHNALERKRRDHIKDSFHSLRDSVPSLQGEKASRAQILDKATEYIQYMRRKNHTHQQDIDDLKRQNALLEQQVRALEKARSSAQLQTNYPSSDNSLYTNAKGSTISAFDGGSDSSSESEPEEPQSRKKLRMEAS

This is one part of the list. Most entries show no effect beyond the scatter of the controls.

Compound in this experiment: CN[C@@H]1C[C@H]2O[C@@](C)([C@@H]1OC)n1c3ccccc3c3c4c(c5c6ccccc6n2c5c31)C(=O)NC4 [staurosporine]
Nature of the experiment: log2 fold change of tryptic peptide abundance, ligand vs vehicle (limited proteolysis) (log2 ratio); higher = more trypsin-susceptible (destabilized). The following applies: ligand concentration: 20 uM; sample: K562 cleared lysate; digestion: 4 min, 22 C (HT-PELSA RT4min, Orbitrap Astral).
For “UniProt P63244 (peptide sequence: LWDLTTGTTTR, peptide start residue: 89)”, the log2 fold change was -0.195.

For “UniProt P84090 (peptide sequence: IYVLLRR, peptide start residue: 91)”, the log2 fold change was -0.491.

Regarding “UniProt P62304 (peptide sequence: GDNITLLQSVSN, peptide start residue: 81)”, the log2 fold change was -0.241.

For “UniProt P60660 (peptide sequence: VFDKEGNGTVMGAEIR, peptide start residue: 95)”, the log2 fold change was -0.105.

As for “MAX (peptide sequence: DHIKDSFHSLR, peptide start residue: 37) (UniProt P61244)”, the log2 fold change turned out to be 0.242.

Turning to “UniProt P61353 (peptide sequence: YSVDIPLDKTVVNK, peptide start residue: 85)”, the log2 fold change is -0.191.
